According to US12104180B2, “Enzyme with acyl transfer function and application thereof” (OCEAN UNIVERSITY OF CHINA, priority 2020, dated 2024):
Some results were stated once for a whole list of compounds, not compound by compound.

Format: biochemical
Conditions: 30° C., 2 h; substrate Macrolactin A; increase relative to wild type

| Molecule | catalytic efficiency towards malonyl-CoA, succinyl-CoA and glutaryl-CoA compared with the wild-type protein |
| --- | --- |
| E128A (protein, mutant protein E128A amino acid sequence) MKQTISNPAFDMKQINALNGHYQTMIDNGDLQCASYMMSRGGEVFAAESLGEFTGGQKEKQTFQLDTIREIGSLTKVFTAVAVMQLVEKGLLDLKMPVKLILPAFDKPGFGEIKILHLLTHTAGLSFALDIQKAEGIDLTNEEEWINYLVSTPLEYGVDEAWNYSRTGFVILGIIISKVTGVSYEQYVTKHIIEALGLERTYFYVPDTLKEEVCVISEHECVQLEKSHHPYFPNKATSGLYSSLRDIWKLAEMFRNKGRLKDKKLLGRKTVEAMLRNQIKPGLPFYFFGAPREEGGFGLGINLWPAGDHYFMTEGTFSHLGMGWCGMFSDPAEDFTYVFFTPISEFHPHAVLTPLNIVWAGI | 1.5-2 times |
| E128Q (protein, mutant protein E128Q amino acid sequence) MKQTISNPAFDMKQINALNGHYQTMIDNGDLQCASYMMSRGGEVFAAESLGEFTGGQKEKQTFQLDTIREIGSLTKVFTAVAVMQLVEKGLLDLKMPVKLILPAFDKPGFGEIKILHLLTHTAGLSFQLDIQKAEGIDLTNEEEWINYLVSTPLEYGVDEAWNYSRTGFVILGIIISKVTGVSYEQYVTKHIIEALGLERTYFYVPDTLKEEVCVISEHECVQLEKSHHPYFPNKATSGLYSSLRDIWKLAEMFRNKGRLKDKKLLGRKTVEAMLRNQIKPGLPFYFFGAPREEGGFGLGINLWPAGDHYFMTEGTFSHLGMGWCGMFSDPAEDFTYVFFTPISEFHPHAVLTPLNIVWAGIE | 1.5-2 times |
